According to publication PMC8458463:
For some of these results: The comparison behind a weaker result is the experiment's own reference, which may not be listed here. For some of these results: Construct, isoform or probe ends are uncertain for at least one entry. For some of these results: At least one verdict rests on a figure or table, not on a statement of the authors.

By UniProt entry, the sequences of proteins in these tests, tags left out. Residues count along the entry.
UniProt O43474, 418-513: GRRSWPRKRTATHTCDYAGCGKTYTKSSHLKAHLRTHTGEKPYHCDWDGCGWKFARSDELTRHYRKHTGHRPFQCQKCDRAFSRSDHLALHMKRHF
UniProt O43474, 418-513 E476D/R501A: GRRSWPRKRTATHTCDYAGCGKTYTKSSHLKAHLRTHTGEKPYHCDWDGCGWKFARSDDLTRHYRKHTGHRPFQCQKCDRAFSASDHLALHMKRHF

What was measured:
KLF4 DBD (human) [1] = target: KLF4 DBD (human) (UniProt O43474); test: EMSA; details: Zn2+, non-cognate, EMSA interaction said to correlate with LLPS potential, SBE lowest; EMSA: 20 mM Tris pH 8, 50 mM NaCl, 5% glycerol, 0.01 mg/ml BSA, 0.1 mM DTT, 0.05 mM TCEP; gel run at 4 C; protein refolded with 3.3 eq ZnSO4; recombinant protein; residues 418-513; protein details: Nano-His6-TEV tag cleaved
KLF4 DBD (human) [2] = target: KLF4 DBD (human) (UniProt O43474); test: smFRET; details: 1 uM DBD, 100 pM A488-NANK, 500 pM A594-NANK, DNA bridging; 5' amino-C6; recombinant protein; residues 418-513; protein details: Nano-His6-TEV tag cleaved
[3] = target: KLF4 DBD E476D/R501A (human) (UniProt O43474); test: EMSA; details: Zn2+, weaker than wild type, EMSA: 20 mM Tris pH 8, 50 mM NaCl, 5% glycerol, 0.01 mg/ml BSA, 0.1 mM DTT, 0.05 mM TCEP, gel run at 4 C, protein refolded with 3.3 eq ZnSO4, recombinant protein, residues 418-513, protein details: Nano-His6-TEV tag cleaved

AATCAGTCTAGACATAC (double strand) [SBE]
binding result (KLF4 DBD (human) [1]): binds more weakly

AGGGGGTGTGCCCGCCAGGAGGGGTGGGTC (double strand) [A488-NANK / A594-NANK]
binding result (KLF4 DBD (human) [2]): binds

AGGGGGTGTGCCCGCCAGGAGGGGTGGGTC (double strand) [NANK]
binding result [3]: binds more weakly

AGGGGGTGTGCCCGCCAGGAGGGGTGGGTC (double strand) [NANKm]
binding result ([3]; 5-methyl-dC at position 13 of strand 1 (CpG in KLFB), complement strand methylation not stated): binds more weakly
